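Vaccinia-infected cells with a two-color viral stage reporter; Venus fluorescence read on a plate reader; the cell line is not named here; timing not stated here.
The test concentration is not given here.
Percent change in Venus reporter signal; lower (more negative) values mean stronger inhibition of that viral stage.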

Values are in %.
How 0% and 100% were set is not given here.
Common to all entries: measured here: Venus reporter, other viral stage.
Part of the compounds only, not a random draw; the main read-out is not listed here.

| Compound | activity change (Venus) (%) |
|---|---|
| `O=C(c1ccccc1)N1CC(=O)N2[C@H](CO)[C@H](c3ccc(C#CCC4CCCC4)cc3)[C@H]2C1` | -49.72 |
| `Cc1cccc(-c2ccc([C@@H]3[C@H]4CN(S(=O)(=O)c5cccc(F)c5)CC(=O)N4[C@H]3CO)cc2)c1` | -54.29 |
| `COc1ccccc1NC(=O)N1CCCCN2[C@H](CO)[C@@H](c3ccc(-c4cccc(C#N)c4)cc3)[C@@H]2C1` | -51.38 |
| `O=C(c1ccccc1F)N1CC(=O)N2[C@H](CO)[C@H](c3ccc(C#Cc4ccc(F)cc4)cc3)[C@H]2C1` | -83.91 |
| `C[C@@H]1CN([C@@H](C)CO)C(=O)c2cc(NS(=O)(=O)c3cccs3)ccc2O[C@@H](C)CCCCO[C@H]1CN(C)Cc1ccc(C(F)(F)F)cc1` | -46.81 |
| `C[C@@H]1CCCCO[C@@H](CN(C)Cc2ccc(Cl)c(Cl)c2)[C@@H](C)CN([C@@H](C)CO)C(=O)c2cc(NC(=O)c3ccccc3)ccc2O1` | -37.22 |
| `C[C@H]1CN([C@@H](C)CO)S(=O)(=O)c2ccc(C3=CCCC3)cc2O[C@H]1CN(C)S(=O)(=O)c1ccc(F)cc1` | -24.86 |
| `C[C@@H]1CN([C@H](C)CO)C(=O)c2cc(-c3cccnc3)cnc2O[C@@H]1CN(C)Cc1ccc(Oc2ccccc2)cc1` | -54.78 |
| `O=C(Nc1ccccc1)N1CC(=O)N2[C@H](CO)[C@H](c3ccc(C#CC4CCCCC4)cc3)[C@@H]2C1` | -36.06 |
| `C[C@@H]1CCCCO[C@H](CN(C)Cc2ccccc2)[C@H](C)CN([C@H](C)CO)C(=O)c2cc(NC(=O)Nc3ccc4c(c3)OCO4)ccc2O1` | -47.95 |
| `C[C@H]1CN([C@@H](C)CO)C(=O)Cc2cc(NC(=O)Nc3ccccc3)ccc2O[C@H]1CN(C)CC1CCCCC1` | -51.54 |
| `CC(C)C#Cc1ccc2c(c1)O[C@H](CN(C)Cc1cccnc1)[C@@H](C)CN([C@H](C)CO)S2(=O)=O` | -50.76 |
| `N#C[C@@H]1[C@@H](c2ccc(-c3cccc(F)c3)cc2)[C@H](CO)N1C(=O)NC1CCCC1` | -51.35 |
| `C[C@@H]1CCCCO[C@H](CN(C)Cc2ccncc2)[C@H](C)CN([C@@H](C)CO)C(=O)c2cc(NC(=O)c3ccccc3)ccc2O1` | -38.36 |
| `C[C@@H]1CN([C@H](C)CO)S(=O)(=O)c2ccc(C#C[C@@H](C)O)cc2O[C@@H]1CN(C)Cc1ccc(-c2ccccc2)cc1` | -39.9 |
| `OC[C@H]1[C@@H](c2ccc(C#CC3CCCC3)cc2)[C@@H]2CN(CCC(F)(F)F)CCCCN12` | -91.31 |
| `C[C@H](CO)N1C[C@H](C)[C@@H](CN(C)Cc2ccccn2)Oc2cc(C#CC3CC3)ccc2S1(=O)=O` | -32.65 |
| `Cc1ccccc1S(=O)(=O)N1CCCCN2[C@H](CO)[C@H](c3ccc(-c4ccccc4)cc3)[C@H]2C1` | -53.84 |
| `C[C@@H]1CN([C@@H](C)CO)S(=O)(=O)c2ccc(-c3ccc(F)cc3)cc2O[C@H]1CN(C)CC1CC1` | -29.16 |
| `CCCC#Cc1ccc([C@H]2[C@@H](C#N)N(C(=O)C3CCC3)[C@H]2CO)cc1` | -29.3 |
| `C[C@@H]1CCCCO[C@@H](CN(C)S(=O)(=O)c2ccc(Cl)cc2)[C@H](C)CN([C@@H](C)CO)C(=O)c2cc(NS(=O)(=O)c3cccs3)ccc2O1` | -37.73 |
| `COc1ccc(S(=O)(=O)Nc2ccc3c(c2)C(=O)N([C@@H](C)CO)C[C@@H](C)[C@H](CN(C)S(=O)(=O)c2ccc(F)cc2)OCCCC[C@@H](C)O3)cc1` | -39.55 |
| `COc1ccccc1S(=O)(=O)N1CC[C@@H]2[C@H](CO)Nc3ccc(-c4ccccc4F)cc3[C@@H]21` | -42.03 |
| `COc1ccc(S(=O)(=O)N(C)C[C@@H]2Oc3cc(-c4cccc(F)c4)ccc3S(=O)(=O)N([C@@H](C)CO)C[C@@H]2C)cc1` | -23.64 |
| `C[C@@H](NC(=O)C[C@@H]1CC[C@@H]2[C@H](COC[C@H](O)CN2C(=O)Nc2cc(Cl)cc(Cl)c2)O1)c1ccccc1` | -28.07 |
| `C[C@H](CO)N1C[C@H](C)[C@@H](CN(C)C(=O)C2CCCCC2)OCCCC[C@H](C)Oc2ccc(NC(=O)NC3CCCCC3)cc2C1=O` | -25.18 |
| `Cc1ccc(-c2cnc3c(c2)C(=O)N([C@@H](C)CO)C[C@H](C)[C@@H](CN(C)C(=O)Cc2cccnc2)O3)cc1` | -33.22 |
| `C[C@H](CO)N1C[C@H](C)[C@H](CN(C)C(=O)c2cc(Cl)cc(Cl)c2)OCc2ccccc2-c2ccccc2C1=O` | -27.48 |
| `C[C@@H]1CCCCO[C@H](CN(C)CC2CCCCC2)[C@H](C)CN([C@@H](C)CO)C(=O)c2cc(NC(=O)Nc3ccc(F)cc3)ccc2O1` | -74.08 |
| `COc1ccc(S(=O)(=O)N(C)C[C@@H]2OCCCC[C@H](C)Oc3ccc(NS(=O)(=O)c4ccccc4)cc3C(=O)N([C@H](C)CO)C[C@@H]2C)cc1` | -30.3 |
| `C[C@H](CO)N1C[C@H](C)[C@@H](CN(C)Cc2ccc(Cl)c(Cl)c2)Oc2ccc(NC(=O)Cc3cn(C)c4ccccc34)cc2CC1=O` | -36.11 |
| `C[C@H]1CN([C@@H](C)CO)S(=O)(=O)c2ccc(C#Cc3ccccc3)cc2O[C@@H]1CN(C)C(=O)c1ccccn1` | -37.11 |
| `C[C@H](CO)N1C[C@H](C)[C@H](CN(C)Cc2ccccn2)Oc2cc(C3=CCCCC3)ccc2S1(=O)=O` | -42.28 |
| `O=C(c1ccc(F)cc1)N1CC(=O)N2[C@@H](CO)[C@@H](c3ccc(C#CCC4CCCC4)cc3)[C@@H]2C1` | -38.98 |
| `O=C(C1CCCCC1)N1CC(=O)N2[C@H](C1)[C@@H](c1ccc(-c3ccccc3F)cc1)[C@@H]2CO` | -32.06 |
| `C/C=C/c1ccc([C@H]2[C@H](CO)N3CCCCN(C(=O)Nc4ccc(F)cc4)C[C@@H]23)cc1` | -46.25 |
| `Cc1ccc(-c2ccc3c(c2)O[C@@H](CN(C)C(=O)CN(C)C)[C@@H](C)CN([C@H](C)CO)S3(=O)=O)cc1` | -47.65 |
| `Cc1ccc(-c2ccc3c(c2)O[C@H](CN(C)Cc2ccc(C(=O)O)cc2)[C@@H](C)CN([C@@H](C)CO)S3(=O)=O)cc1` | -38.27 |
| `COc1ccc(CN(C)C[C@H]2OCCCC[C@H](C)Oc3ccc(NC(=O)NC4CCCCC4)cc3C(=O)N([C@H](C)CO)C[C@H]2C)cc1` | -52.77 |
| `CCC(=O)N(C)C[C@@H]1Oc2cc(C#CCC3CCCC3)ccc2S(=O)(=O)N([C@@H](C)CO)C[C@@H]1C` | -26.98 |
| `COc1ccccc1-c1ccc2c(c1)O[C@@H](CN(C)C(=O)Nc1cccc(F)c1)[C@@H](C)CN([C@@H](C)CO)S2(=O)=O` | -33.19 |
| `C/C=C/c1ccc([C@H]2[C@@H](CO)N[C@@H]2CN(CC)C(=O)CN2CCOCC2)cc1` | -33.84 |
| `COC(=O)[C@@]1(CCC(=O)OC(C)(C)C)N=C(c2ccc(OCCCO)cc2)O[C@H]1c1ccccc1CN=[N+]=[N-]` | -64.54 |
| `C[C@H]1CN([C@@H](C)CO)C(=O)Cc2cc(NC(=O)Nc3ccc(C(F)(F)F)cc3)ccc2O[C@H]1CN(C)C(=O)Nc1ccc(C(F)(F)F)cc1` | -45.3 |
| `Cc1ccc(S(=O)(=O)Nc2ccc3c(c2)CC(=O)N([C@@H](C)CO)C[C@@H](C)[C@H](CN(C)Cc2ccc4c(c2)OCO4)O3)cc1` | -71.79 |
| `COc1ccc(NC(=O)N2CCCCN3[C@H](CO)[C@@H](c4ccc(C#Cc5ccccc5)cc4)[C@@H]3C2)cc1` | -24.97 |
| `O=C(C[C@@H]1CC[C@H]2[C@@H](COC[C@H](O)CN2Cc2ccc3c(c2)OCO3)O1)Nc1ccc(-c2ccccc2)cc1` | -63.83 |
| `COc1ccc(NC(=O)Nc2ccc3c(c2)C(=O)N([C@@H](C)CO)C[C@H](C)[C@@H](CN(C)Cc2ccc4c(c2)OCO4)OCCCC[C@@H](C)O3)cc1` | -46.83 |
| `C[C@H]1CN([C@@H](C)CO)S(=O)(=O)c2ccc(C3=CCCCC3)cc2O[C@H]1CN(C)C(=O)CN(C)C` | -30.37 |
| `COc1ccc(S(=O)(=O)Nc2ccc3c(c2)C(=O)N([C@H](C)CO)C[C@H](C)[C@H](CN(C)S(=O)(=O)c2c(C)noc2C)OCCCC[C@H](C)O3)cc1` | -33.07 |
| `C[C@@H]1CN([C@@H](C)CO)C(=O)c2cc(NC(=O)CCN3CCOCC3)ccc2O[C@@H]1CN(C)Cc1ccc(Oc2ccccc2)cc1` | -32.19 |
| `COc1cccc(S(=O)(=O)Nc2ccc3c(c2)[C@H]2C[C@H](CC(=O)NCc4ccc(Cl)cc4)O[C@@H](CO)[C@H]2O3)c1` | -22.46 |
| `COc1cccc(C#Cc2ccc([C@H]3[C@H]4CN(C(=O)c5ccccc5)CC(=O)N4[C@H]3CO)cc2)c1` | -77.29 |
| `CCS(=O)(=O)N1CC(=O)N2[C@H](CO)[C@@H](c3ccc(-c4ccccc4F)cc3)[C@H]2C1` | -64.45 |
| `O=C(C[C@H]1CC[C@H]2[C@@H](COC[C@H](O)CN2C(=O)Nc2ccc(C(F)(F)F)cc2)O1)NC1Cc2ccccc2C1` | -43.88 |
| `Cc1ccc(S(=O)(=O)Nc2ccc3c(c2)C(=O)N([C@H](C)CO)C[C@H](C)[C@@H](CN(C)S(=O)(=O)c2ccc(C)cc2)OCCCC[C@H](C)O3)cc1` | -30.39 |

The last 6 entries again:

For C[C@@H]1CN([C@@H](C)CO)C(=O)c2cc(NC(=O)CCN3CCOCC3)ccc2O[C@@H]1CN(C)Cc1ccc(Oc2ccccc2)cc1 the result was activity change (Venus) -32.19%.
For COc1cccc(S(=O)(=O)Nc2ccc3c(c2)[C@H]2C[C@H](CC(=O)NCc4ccc(Cl)cc4)O[C@@H](CO)[C@H]2O3)c1 the result was activity change (Venus) -22.46%.
For COc1cccc(C#Cc2ccc([C@H]3[C@H]4CN(C(=O)c5ccccc5)CC(=O)N4[C@H]3CO)cc2)c1 the result was activity change (Venus) -77.29%.
For CCS(=O)(=O)N1CC(=O)N2[C@H](CO)[C@@H](c3ccc(-c4ccccc4F)cc3)[C@H]2C1 the result was activity change (Venus) -64.45%.
For O=C(C[C@H]1CC[C@H]2[C@@H](COC[C@H](O)CN2C(=O)Nc2ccc(C(F)(F)F)cc2)O1)NC1Cc2ccccc2C1 the result was activity change (Venus) -43.88%.
For Cc1ccc(S(=O)(=O)Nc2ccc3c(c2)C(=O)N([C@H](C)CO)C[C@H](C)[C@@H](CN(C)S(=O)(=O)c2ccc(C)cc2)OCCCC[C@H](C)O3)cc1 the result was activity change (Venus) -30.39%.

The results are deposited in PubChem (AID1053133; Broad Institute, 2014).